# In all, about 330,000 compounds went through this assay and about 7,700 (2.3%) were called active. Inconclusive results, whose numbers are uncertain, are shown with a selection of clear calls. Calls come from the whole dose curve; as a rule, active = well fitted inhibition curve with a large enough effect; inconclusive = small, poorly fitted or top-dose-only effect, or effect the other way; inactive = flat fitted curve, though single readings scatter. A potency beside an inconclusive call is a rough fit, not a confirmed value.
# Test: qHTS screen for small molecules that inhibit ELG1-dependent DNA repair in human embryonic kidney (HEK293T) cells expressing luciferase-tagged ELG1; note: nearly all actives have a fitted effect of over 55% in size
# Conditions: HEK293T ELG1-luciferase reporter, luminescence, 16 h, DNA damage induced by 5-fluorouridine; series mostly up to 46.1 µM
# In short: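 Reporter activity after DNA damage by 5-fluorouridine is monitored. Compound-treated cells incubate 16 hr at 37 °C, then ONE-Glo is added for 30 min before luminescence reading.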
# Potency is the fitted concentration of half-maximal effect.
row,SMILES,Potency
1,CCOc1ccc2c(c1)n([O-])c1c([n+]2=O)CCCC1,"inconclusive: 11.6 µM [activator, partial curve, poor fit]"
2,O=C(Nc1ccccc1C(=O)NCc1ccc(Cl)cc1)c1ccco1,"inconclusive: 18.4 µM [inhibitor, single point]"
3,CC12CCC(C(=O)Nc3nc4ccc(Br)cc4s3)(OC1=O)C2(C)C (stereo not given),"inconclusive: 13 µM [activator, partial curve]"
4,O=S(=O)(c1cccc(C(F)(F)F)c1)N1CCC(c2cc(-c3cccc4ccccc34)n[nH]2)CC1,inactive
5,CN(Cc1ccccc1)C(=O)c1[nH]cnc1C(=O)NC1CCN(C(=O)OC(C)(C)C)CC1,"inconclusive: 23.1 µM [inhibitor, partial curve, poor fit]"
6,CCOc1ccc(OCCC(=O)N2CCN(S(=O)(=O)c3ccc(F)cc3)CC2)cc1,"inconclusive: 29.1 µM [inhibitor, partial curve, poor fit]"
7,COc1cccc(-n2nnc(S(=O)(=O)c3ccc(C)cc3)c2N)c1,"inconclusive: 14.6 µM [inhibitor, partial curve, poor fit]"
8,O=C(c1ccco1)N1CCN(C(c2ccccn2)c2nnnn2C2CCCC2)CC1 (stereo not given),"inconclusive: 20.6 µM [activator, partial curve]"
9,Cc1ccccc1C(=O)Nc1c2c(nn1C(C)(C)C)CS(=O)(=O)C2,inactive
10,C/C(=N/Nc1ccc(C)cc1)C1(C)N(O)C(C)(C)C(c2ccco2)=[N+]1[O-] (stereo not given),"inconclusive: 29.1 µM [inhibitor, single point]"
11,O=Cc1ccccc1OCc1ccc2c(c1)OCO2,"inconclusive: 7.3 µM [activator, partial curve]"
12,O=C(Nc1ccc2c(c1)OCO2)NC1CCN(Cc2ccccc2)CC1,"inconclusive: 11.6 µM [activator, partial curve, poor fit]"
13,CC(=O)c1sc(-c2ccc(F)cc2)cc1NS(=O)(=O)c1ccccc1,inactive
14,COc1cc(C(=O)N/N=C(\C)c2ccc(NC(=O)Cc3ccccc3)cc2)ccc1O,"inconclusive: 20.6 µM [activator, partial curve]"
15,Cc1[nH]c2ccccc2c1CCN(Cc1cccnc1)C(=S)NC(C)(C)C,inactive
16,COc1cc2c(cc1OC)CN(C(=O)C1CCCN(C(=O)c3ccc(Cl)cc3)C1)CC2 (stereo not given),inactive
17,Cc1nc2cc(-c3ccccc3)sc2c(=O)n1N,"inconclusive: 0.259 µM [activator, partial curve]"
18,O=C1c2cccc3cccc(c23)C(=O)N1/N=C/c1ccc(O)cc1O,inactive
19,O=C(CN1C(=O)C2C3C=CC(C3)C2C1=O)NCCC1=CCCCC1 (stereo not given),"inconclusive: 20.6 µM [activator, single point]"
20,O=[N+]([O-])c1ccc(Cl)c(/C=N/n2c(-c3ccncc3)n[nH]c2=S)c1,inactive
21,Cc1cccc(C(=O)Nc2ccc(C(=O)N/N=C/c3cccc(C)n3)cc2)c1,"inconclusive: 29.1 µM [inhibitor, single point]"
22,CCCCC(=O)Nc1ccccc1CC,inactive
23,O=c1c2ccccc2nc(COc2ccccc2)n1/N=C/c1ccco1,"inconclusive: 2.51 µM [activator, full curve, poor fit]"

row,SMILES,Potency
1,Cc1ccc(OCCC(=O)O)cc1,inactive
2,O=C(CN1CCc2ccccc2C1)Nc1ccc(OC(F)(F)F)cc1,"inconclusive: 29.1 µM [inhibitor, single point]"
3,COc1ccc(/C(N)=N/OC(=O)Cc2ccccc2)cc1,"inconclusive: 18.4 µM [activator, partial curve]"
4,c1ccc2nc(-c3ccncc3)ccc2c1,"inconclusive: 20.6 µM [activator, partial curve]"
5,O=C(CSc1nnc(-c2ccccc2)c(-c2ccccc2)n1)NC1CCS(=O)(=O)C1 (stereo not given),inactive
6,CCn1c(C)cc(/C=C2/NC(=O)N(Cc3ccccc3F)C2=O)c1C,"inconclusive: 29.1 µM [inhibitor, single point]"
7,Cc1ccc(OCC(=O)Nc2ccc3oc(=O)ccc3c2)c(C)c1,"inconclusive: 25.9 µM [inhibitor, single point]"
8,O=C(NC(=S)N1CCc2ccccc21)c1ccccc1Cl,"inconclusive: 18.3 µM [activator, single point]"
9,CC(C(=O)Nc1cccc([N+](=O)[O-])c1)[n+]1ccccc1 (stereo not given),inactive
10,Cc1cccn2c(=O)c(/C=C(\C#N)C(=O)NCc3ccco3)c(N3CCCCCC3)nc12,"inconclusive: 29.1 µM [inhibitor, single point]"
11,Cc1ccc(S(=O)(=O)N2CCCC(C(=O)NCCC(C)C)C2)cc1 (stereo not given),inactive
12,O=C(Nc1cccc(Cl)c1)c1ccc(F)c(S(=O)(=O)N2CCN(c3ccccn3)CC2)c1,active: 13 µM
13,COc1cc(C2=Nc3c(c(C)nn3-c3ccccc3)P(=O)(N3CCOCC3)O2)cc(OC)c1OC (stereo not given),"inconclusive: 16.4 µM [inhibitor, single point]"
14,Cc1ccc(-c2ccc(/C=C/C(=O)c3ccccc3)o2)cc1,"inconclusive: 29.1 µM [activator, single point]"
15,O=[N+]([O-])c1cc(S(=O)(=O)NCCCN2CCOCC2)ccc1Cl,"inconclusive: 18.4 µM [activator, single point]"
16,CC(C)(C)C1CCC2(CC1)C(C#N)=C(SCC(=O)Nc1ccccc1)NC(=O)C2C#N (stereo not given),"inconclusive: 2.59 µM [inhibitor, full curve]"
17,CCCNC(=O)[C@H](C)NC(=O)c1ccc(Br)cc1,inactive
18,Cc1ccc(C)c(NS(=O)(=O)c2cc(C(=O)NCCSC3CCCCC3)ccc2C)c1,active: 20.6 µM
19,Cc1ccc(Cn2c(=N)c(C(=O)NC3CCCC3)cc3c(=O)n4ccccc4nc32)cc1,inactive
20,Cn1c(CNC(=O)CCNC(=O)c2cccc(F)c2)cc(=O)n(C)c1=O,inactive
21,COc1ccc(-c2csc(NC(=O)COC(=O)c3ccc(Br)o3)n2)cc1,"inconclusive: 18.4 µM [activator, partial curve]"
22,O=C(CCl)Nc1ccc2c(c1)OCO2,inactive

# Two entries from above, set out differently:
row	SMILES	Potency
23	O=c1c2ccccc2nc(COc2ccccc2)n1/N=C/c1ccco1	inconclusive: 2.51 µM [activator, full curve, poor fit]
22	O=C(CCl)Nc1ccc2c(c1)OCO2	inactive

# Source: PubChem BioAssay AID504467 (National Center for Advancing Translational Sciences (NCATS), 2011)
